Measurements reported in PubChem BioAssay AID652272 (Drosophila RNAi Screening Center, 2013)
Screen: 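Genes whose knock-down decreases or increases Hedgehog reporter output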 (primary screen). Cells: Drosophila clone 8 (Cl8) cells. Reagents: long dsRNA against Drosophila genes. Detection: 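Firefly light from a Hedgehog-responsive ptc promoter reporter and Renilla reference light, both read on a plate reader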. Direction: firefly Hh reporter signal: higher = more ptc reporter light; Renilla reference signal: higher = more Renilla control light. Active means: 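Hit when the z-score averaged over two replicates is under -2 or over +3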. Meaning of the calls: active = hit: reporter lowered or raised; inactive = not a hit.
In all, the deposit lists about 21,000 reagents; this is an unselected part of those with a known target gene and a result. In the full data, 503 (2.4%) are marked active. 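Raw plate light values, not normalised; calls rest on replicate z-scores that were not deposited; hits include reporter decreases as well as increases.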 A number with no mark means an inactive call. Reagents against one gene are numbered here. No sequences are given here. Not stated in the record: the amount of reagent, the time to read-out.

Obp18a (GeneID 32897) showed firefly Hh reporter signal, replicate 1 = 65352; firefly Hh reporter signal, replicate 2 = 2.83e5; Renilla reference signal, replicate 1 = 2436; Renilla reference signal, replicate 2 = 10489.
Against CG10209 (GeneID 36652) the deposit lists firefly Hh reporter signal, replicate 1 = 93289; firefly Hh reporter signal, replicate 2 = 73441; Renilla reference signal, replicate 1 = 4595; Renilla reference signal, replicate 2 = 3137.
CG18789 (GeneID 317813) scored firefly Hh reporter signal, replicate 1 = 1.46e5; firefly Hh reporter signal, replicate 2 = 91876; Renilla reference signal, replicate 1 = 3392; Renilla reference signal, replicate 2 = 8124.
With knock-down of CG34136 (GeneID 4379892), the screen gave firefly Hh reporter signal, replicate 1 = 2.34e5; firefly Hh reporter signal, replicate 2 = 3.17e5; Renilla reference signal, replicate 1 = 6064; Renilla reference signal, replicate 2 = 15531.
After knock-down of CG33282 (GeneID 2768939), the screen gave firefly Hh reporter signal, replicate 1 = 1.02e5; firefly Hh reporter signal, replicate 2 = 45881; Renilla reference signal, replicate 1 = 2578; Renilla reference signal, replicate 2 = 5028.
CG18368 (GeneID 36519) scored firefly Hh reporter signal, replicate 1 = 87760; firefly Hh reporter signal, replicate 2 = 54484; Renilla reference signal, replicate 1 = 2395; Renilla reference signal, replicate 2 = 4643.
With knock-down of CG14818 (GeneID 31147), the record shows firefly Hh reporter signal, replicate 1 = 4.58e5; firefly Hh reporter signal, replicate 2 = 1.45e5; Renilla reference signal, replicate 1 = 11824; Renilla reference signal, replicate 2 = 4784.
Knock-down of Odc1 (GeneID 35766) gave: firefly Hh reporter signal, replicate 1 = 1.06e5; firefly Hh reporter signal, replicate 2 = 69361; Renilla reference signal, replicate 1 = 4056; Renilla reference signal, replicate 2 = 2435.
After knock-down of CG4049 (GeneID 37860) the results were firefly Hh reporter signal, replicate 1 = 82838; firefly Hh reporter signal, replicate 2 = 56139; Renilla reference signal, replicate 1 = 2226; Renilla reference signal, replicate 2 = 5648.
Depletion of Hsp67Bc (GeneID 39071) came out at: firefly Hh reporter signal, replicate 1 = 31345; firefly Hh reporter signal, replicate 2 = 35292; firefly Hh reporter signal, replicate 3 = 67524; Renilla reference signal, replicate 1 = 3232; Renilla reference signal, replicate 2 = 4697.
For slou (GeneID 42547), the entry reads firefly Hh reporter signal, replicate 1 = 7.55e5; firefly Hh reporter signal, replicate 2 = 1.35e5; Renilla reference signal, replicate 1 = 43611; Renilla reference signal, replicate 2 = 2304.
For Eip75B (GeneID 39999) #1, the entry reads firefly Hh reporter signal, replicate 1 = 2.66e5; Renilla reference signal, replicate 1 = 6080.
Knock-down of Eip75B (GeneID 39999) #2 came out at: firefly Hh reporter signal, replicate 1 = 43707; firefly Hh reporter signal, replicate 2 = 29430; Renilla reference signal, replicate 1 = 2124; Renilla reference signal, replicate 2 = 1143.
Alg14 (GeneID 32479) gave firefly Hh reporter signal, replicate 1 = 62813; firefly Hh reporter signal, replicate 2 = 1.98e5; Renilla reference signal, replicate 1 = 1287; Renilla reference signal, replicate 2 = 7163.
CG17684 (GeneID 3355066) #1 showed firefly Hh reporter signal, replicate 1 = 1.46e5; firefly Hh reporter signal, replicate 2 = 3.23e5; Renilla reference signal, replicate 1 = 4032; Renilla reference signal, replicate 2 = 12587.
Against CG17684 (GeneID 3355066) #2, the entry reads firefly Hh reporter signal, replicate 1 = 68151; firefly Hh reporter signal, replicate 2 = 2.29e5; Renilla reference signal, replicate 1 = 1568; Renilla reference signal, replicate 2 = 9206.
Against CG2652 (GeneID 31250), the values are firefly Hh reporter signal, replicate 1 = 1.43e5; firefly Hh reporter signal, replicate 2 = 8.54e5; firefly Hh reporter signal, replicate 3 = 1.43e5; Renilla reference signal, replicate 1 = 3353; Renilla reference signal, replicate 2 = 50816.
Knock-down of RabX6 (GeneID 38084) resulted in: firefly Hh reporter signal, replicate 1 = 63177; firefly Hh reporter signal, replicate 2 = 41990; Renilla reference signal, replicate 1 = 1921; Renilla reference signal, replicate 2 = 3180.
tamo (GeneID 37864) showed firefly Hh reporter signal, replicate 1 = 1.23e5; firefly Hh reporter signal, replicate 2 = 98454; Renilla reference signal, replicate 1 = 5034; Renilla reference signal, replicate 2 = 4339.
Against CG1690 (GeneID 36004) the deposit lists firefly Hh reporter signal, replicate 1 = 1.45e5; firefly Hh reporter signal, replicate 2 = 57696; Renilla reference signal, replicate 1 = 2962; Renilla reference signal, replicate 2 = 434.
After knock-down of CG8834 (GeneID 36356) the results were firefly Hh reporter signal, replicate 1 = 1.02e5; firefly Hh reporter signal, replicate 2 = 76583; Renilla reference signal, replicate 1 = 2208; Renilla reference signal, replicate 2 = 4900.

In a second layout: 2 of the entries above
{"Gene": "slou (GeneID 42547)", "reagent no.": 1, "firefly Hh reporter signal, replicate 1": 7.55e5, "firefly Hh reporter signal, replicate 2": 1.35e5, "Renilla reference signal, replicate 1": 43611, "Renilla reference signal, replicate 2": 2304}
{"Gene": "Eip75B (GeneID 39999)", "reagent no.": 1, "firefly Hh reporter signal, replicate 1": 2.66e5, "Renilla reference signal, replicate 1": 6080}
